Variants at the background level are over-represented here.
Columns and labels:
biotinyl-Trp-oxazolone = assay: self-aminoacylation, catalytic enhancement (BWO) (fold over background); higher = more active; k-Seq, kA / k0A0; sequences stand for … in GGGAAUGGAUCCACAUCUACGAAUUC…UUCACUGCAGACUUGACGAAGCUG
Procedure, shortened: (§1)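 Catalytic enhancement equals the median kA over the uncatalyzed rate, the latter read from the low-activity peak of a bimodal Gaussian fit. Values of kA came from fitting each sequence's fraction reacted to a pseudo-first-order model, with 1000 bootstraps. Reacted RNA was captured with streptavidin and quantified by triplicate qPCR and Illumina sequencing after 90 minutes at room temperature with 2–1250 μM biotinyl-aminoacyl-oxazolone and 0.43 μM mutagenized RNA pools bearing a 21-nt variable region.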

biotinyl-Leu-oxazolone = assay: self-aminoacylation, catalytic enhancement (BLO) (fold over background); higher = more active; k-Seq, kA / k0A0; sequences stand for … in GGGAAUGGAUCCACAUCUACGAAUUC…UUCACUGCAGACUUGACGAAGCUG
Procedure, shortened: as §1

biotinyl-Val-oxazolone = assay: self-aminoacylation, catalytic enhancement (BVO) (fold over background); higher = more active; k-Seq, kA / k0A0; sequences stand for … in GGGAAUGGAUCCACAUCUACGAAUUC…UUCACUGCAGACUUGACGAAGCUG
Procedure, shortened: as §1

biotinyl-Ile-oxazolone = assay: self-aminoacylation, catalytic enhancement (BIO) (fold over background); higher = more active; k-Seq, kA / k0A0; sequences stand for … in GGGAAUGGAUCCACAUCUACGAAUUC…UUCACUGCAGACUUGACGAAGCUG
Procedure, shortened: as §1

biotinyl-Met-oxazolone = assay: self-aminoacylation, catalytic enhancement (BMO) (fold over background); higher = more active; k-Seq, kA / k0A0; sequences stand for … in GGGAAUGGAUCCACAUCUACGAAUUC…UUCACUGCAGACUUGACGAAGCUG
Procedure, shortened: as §1

biotinyl-Phe-oxazolone = assay: self-aminoacylation, catalytic enhancement (BFO) (fold over background); higher = more active; k-Seq, kA / k0A0; sequences stand for … in GGGAAUGGAUCCACAUCUACGAAUUC…UUCACUGCAGACUUGACGAAGCUG
Procedure, shortened: as §1

Sequence	self-aminoacylation (biotinyl-Trp-oxazolone)	self-aminoacylation (biotinyl-Leu-oxazolone)	self-aminoacylation (biotinyl-Val-oxazolone)	self-aminoacylation (biotinyl-Ile-oxazolone)	self-aminoacylation (biotinyl-Met-oxazolone)	self-aminoacylation (biotinyl-Phe-oxazolone)
CUACCUCAAACUAUCGGUCUG [Fam1A.1 aminoacylation ribozyme variant]	0.812	1.17	1.08	0.913	0.761	1.03
AUUACCCUGGUAAUCGACUGA [Fam2.1 aminoacylation ribozyme variant]	0.623	0.539	0.823	0.689	0.475	0.42
CCACACUUCUAGCAAUGGGUC [Fam1B.1 aminoacylation ribozyme variant]	0.532	0.619	0.728	0.652	0.627	0.944
CUAAUCCAAACAAUCGGUCUG [Fam1A.1 aminoacylation ribozyme variant]	0.473	0.627	0.786	0.717	0.702	1.08
AAGUUUGCCAAUAGUCGCGAG [Fam3.1 aminoacylation ribozyme variant]	3.77	2.25	2.09	1.61	1.96	11.6
CCACACUUCAAGCAAUCUUUC [Fam1B.1 aminoacylation ribozyme variant]	0.468	0.463	0.644	0.589	0.489	1.1
AAGUUUGCUAGUAUUCGCAAG [Fam3.1 aminoacylation ribozyme variant]	1.39	0.753	0.955	1.13	1.02	0.726
AUUCACAUAGGUCAUCGGUUG [Fam2.2 aminoacylation ribozyme variant]	0.829	1.08	0.966	0.998	1.09	0.749
CUACACUUCAAGCACUCGGUC [Fam1B.1 aminoacylation ribozyme variant]	0.614	0.757	0.945	0.886	0.786	0.867
CCACACUUCAUUCAAUCGGUC [Fam1B.1 aminoacylation ribozyme variant]	0.495	0.701	0.744	0.806	0.604	0.605
AUUACCCUGGUCUUCGAGUAA [Fam2.1 aminoacylation ribozyme variant]	0.723	1.15	1.22	1.22	1.14	0.72
CUACUUCAAACACUCGGUUUG [Fam1A.1 aminoacylation ribozyme variant]	0.897	0.88	1.17	1.18	0.897	1.22
AUCCACCUAGGUCAUGGGGUG [Fam2.2 aminoacylation ribozyme variant]	5.9	6.65	3.77	3.54	5.64	56.5
CCACAAUUCCAGCAAUCGGUC [Fam1B.1 aminoacylation ribozyme variant]	1.18	1.51	1.66	1.83	1.63	1.2
AAUCACCUAGGUAAUCGGGUG [Fam2.2 aminoacylation ribozyme variant]	4.18	3.17	2.08	2.64	2.67	14.1
CUACUUCAAACAAUAGGCCUG [Fam1A.1 aminoacylation ribozyme variant]	0.524	0.688	0.79	0.727	0.534	1.06
AAGUUUGCUGAUAGUCGCAUG [Fam3.1 aminoacylation ribozyme variant]	1.51	1.21	1.03	1.16	1.21	1.41
CUGAUUCAAACAAUCGGUCUG [Fam1A.1 aminoacylation ribozyme variant]	6.12	1.14	0.828	0.947	0.923	9.61
AAGUGUGCUAAUACUCGCAAG [Fam3.1 aminoacylation ribozyme variant]	0.97	0.658	0.842	0.959	0.806	0.767
AUUCACCUAGCUCAUCGGGCG [Fam2.2 aminoacylation ribozyme variant]	1.8	2.33	2.57	2.26	2.3	11.7
AUUCCCCUGGUCAUUGAGUGA [Fam2.1 aminoacylation ribozyme variant]	11.7	8.32	4.5	4.73	8.79	64.3
AUUACUCUGGUCAUCGAUUGA [Fam2.1 aminoacylation ribozyme variant]	0.716	1.06	0.938	0.896	0.959	0.576
CCACACUUCUAGCAAGCGGUC [Fam1B.1 aminoacylation ribozyme variant]	0.799	1.01	0.911	0.881	0.779	0.819
CCACACUGCAAGCAAUCCGUC [Fam1B.1 aminoacylation ribozyme variant]	0.998	0.969	1.33	1.42	1.04	0.969
AUUAACUUGGUCAUCGAGUGA [Fam2.1 aminoacylation ribozyme variant]	4.83	4.16	2.48	2.9	3.67	3.99
CCACACUACACGCAAUCGGUC [Fam1B.1 aminoacylation ribozyme variant]	0.906	0.771	1	1.01	0.829	1.02

Sequence	self-aminoacylation (biotinyl-Trp-oxazolone)	self-aminoacylation (biotinyl-Leu-oxazolone)	self-aminoacylation (biotinyl-Val-oxazolone)	self-aminoacylation (biotinyl-Ile-oxazolone)	self-aminoacylation (biotinyl-Met-oxazolone)	self-aminoacylation (biotinyl-Phe-oxazolone)
GUACUUCAAACAAUAGGUCUG [Fam1A.1 aminoacylation ribozyme variant]	1.5	1.14	1.18	1.34	1.28	1.89
CCACACUUCUAGCAGUCGGUC [Fam1B.1 aminoacylation ribozyme variant]	0.424	0.807	0.8	0.933	0.596	1.36
CUCCUUCAAACAAUCCGUCUG [Fam1A.1 aminoacylation ribozyme variant]	1.25	0.659	0.949	1.03	0.657	1.24
CUACUUCAAACAAUAGGUCCG [Fam1A.1 aminoacylation ribozyme variant]	0.348	0.564	0.551	0.645	0.585	0.734
CUAGUUCAAACCAUCGGUCUG [Fam1A.1 aminoacylation ribozyme variant]	1.45	1.08	1.17	1.36	1.07	1.11
AAGUUCGCUAAGAGUCGCAAG [Fam3.1 aminoacylation ribozyme variant]	1.73	1.56	1.71	1.24	1.19	1.58
GCACACUUCAAGCAAUCGGGC [Fam1B.1 aminoacylation ribozyme variant]	4.23	3.02	3.09	3.11	2.58	13.7
AUUACCCUGGUCAUGGACUGA [Fam2.1 aminoacylation ribozyme variant]	0.593	0.883	0.911	0.93	1.08	0.628
CCACACUCGAAGCAAUCGGUC [Fam1B.1 aminoacylation ribozyme variant]	0.864	0.764	1.11	1.2	1.1	1.07
CUACUUCAAAAAAUGGGUCUG [Fam1A.1 aminoacylation ribozyme variant]	0.796	0.942	0.727	0.997	0.964	0.618
AAAUUUGCUAAUAAUCGCAAG [Fam3.1 aminoacylation ribozyme variant]	1.43	1.09	1.47	1.73	1.33	1.65
CCACACUUCGAGCAGUCGGUC [Fam1B.1 aminoacylation ribozyme variant]	1.25	1.6	1.52	1.02	0.96	0.778
CAACACUUCAAGCAAUGGGUC [Fam1B.1 aminoacylation ribozyme variant]	0.833	0.882	0.664	0.858	0.834	0.677
UUUCACCUAGCUCAUCGGGUG [Fam2.2 aminoacylation ribozyme variant]	2.5	2.24	2.73	2.03	1.77	1.68
AUUACACUGGUCAUCGACUGA [Fam2.1 aminoacylation ribozyme variant]	0.546	0.807	0.965	1	0.596	1.11
AUUACCCUGGUCGUCGACUGA [Fam2.1 aminoacylation ribozyme variant]	0.555	0.776	0.826	0.697	0.787	0.577
AUUCAACUAGGUCAUAGGGUG [Fam2.2 aminoacylation ribozyme variant]	1.47	2.58	1.28	1.49	2	9.13
AACUUUCCUAAUAGUCGCAAG [Fam3.1 aminoacylation ribozyme variant]	1.72	1.58	1.11	1.29	1.4	2.29
AUUACCCUGCUCAUCGAGUAA [Fam2.1 aminoacylation ribozyme variant]	0.349	0.928	0.855	0.982	0.79	0.718
CUACUUCAAACAGUCGAUCUG [Fam1A.1 aminoacylation ribozyme variant]	0.471	0.585	0.703	0.728	0.663	0.789
CCACACUUCAAGCAAUCAGGC [Fam1B.1 aminoacylation ribozyme variant]	1.04	0.729	1.01	0.856	0.59	0.979
AUUACCCUGGUCGUUGAGUGA [Fam2.1 aminoacylation ribozyme variant]	1.02	1.32	1.11	0.969	1.05	0.714
CCACACUUCAAGCAAGCGAUC [Fam1B.1 aminoacylation ribozyme variant]	0.313	0.526	0.637	0.583	0.504	0.617
CCACACCUCAAGCAAUCGUUC [Fam1B.1 aminoacylation ribozyme variant]	0.894	0.739	0.914	0.934	0.779	1.11
CCUCACUUCAAGCAAUCGAUC [Fam1B.1 aminoacylation ribozyme variant]	0.672	0.453	0.691	0.494	0.482	1.71

From the supplement of paper PMC9233669
